From PubChem BioAssay record AID1053133 (Broad Institute, 2014).

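Plate-reader measure of the Venus reporter marking one vaccinia stage in infected cells (the cell line is not named here); read time unknown.
The test concentration is not given here.
Percent change in Venus reporter signal; lower (more negative) values mean stronger inhibition of that viral stage.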

Values are in %.
The controls that fix the scale are not given here.
Common to all entries: measured here: Venus reporter, other viral stage.
Part of the compounds only, not a random draw; the main read-out is not listed here.

{"compound": "COc1cccc(S(=O)(=O)Nc2ccc3c(c2)[C@@H]2C[C@H](CC(=O)NCc4cccc(F)c4)O[C@@H](CO)[C@@H]2O3)c1", "activity change (Venus) (%)": "-24.21"}
{"compound": "CC(=O)N(C)C[C@H]1Oc2cc(C#CCC3CCCC3)ccc2S(=O)(=O)N([C@@H](C)CO)C[C@@H]1C", "activity change (Venus) (%)": "-42.77"}
{"compound": "CO[C@H]1CN(C)C(=O)c2cc(NS(=O)(=O)c3ccc(-c4ccccc4)cc3)ccc2OC[C@@H](C)NC[C@@H]1C", "activity change (Venus) (%)": "-26.13"}
{"compound": "O=C1CN(S(=O)(=O)c2ccccc2)C[C@@H]2[C@H](c3ccc(C#Cc4ccccc4)cc3)[C@H](CO)N12", "activity change (Venus) (%)": "-44.31"}
{"compound": "C[C@@H]1CCCCO[C@H](CN(C)C(=O)c2ccccc2)[C@H](C)CN([C@@H](C)CO)C(=O)c2cc(NS(=O)(=O)c3ccc(F)cc3)ccc2O1", "activity change (Venus) (%)": "-44.78"}
{"compound": "CCCN(C)C[C@@H]1Oc2cc(C#CC(C)C)ccc2S(=O)(=O)N([C@@H](C)CO)C[C@H]1C", "activity change (Venus) (%)": "-29.13"}
{"compound": "O=C(C[C@H]1C=C[C@@H](NS(=O)(=O)c2ccc(F)cc2)[C@H](CO)O1)NCc1ccc(Cl)c(Cl)c1", "activity change (Venus) (%)": "-34.03"}
{"compound": "C[C@H]1CN([C@@H](C)CO)C(=O)Cc2cc(NC(=O)Nc3ccccc3)ccc2O[C@H]1CN(C)Cc1ccc(Cl)c(Cl)c1", "activity change (Venus) (%)": "-26.79"}
{"compound": "CO[C@@H]1CN(C)C(=O)c2cc(NC(=O)c3nc4ccccc4s3)ccc2OC[C@H](C)N(Cc2cccnc2)C[C@H]1C", "activity change (Venus) (%)": "-51.37"}
{"compound": "CC(C)CC#Cc1ccc2c(c1)O[C@@H](CN(C)C(=O)CN(C)C)[C@@H](C)CN([C@@H](C)CO)S2(=O)=O", "activity change (Venus) (%)": "-47.59"}
{"compound": "C[C@@H]1CCCCO[C@@H](CN(C)Cc2ccc(C(F)(F)F)cc2)[C@H](C)CN([C@@H](C)CO)C(=O)c2cc(NS(=O)(=O)c3ccc(Cl)cc3)ccc2O1", "activity change (Venus) (%)": "-35.06"}
{"compound": "COc1ccc(CN(C)C[C@@H]2OCCCC[C@H](C)Oc3ccc(NS(=O)(=O)c4ccc(C)cc4)cc3C(=O)N([C@@H](C)CO)C[C@H]2C)cc1", "activity change (Venus) (%)": "-42.09"}
{"compound": "CC(C)CC#Cc1cnc2c(c1)C(=O)N([C@@H](C)CO)C[C@H](C)[C@@H](CN(C)Cc1ccccc1)O2", "activity change (Venus) (%)": "-30.93"}
{"compound": "COC(=O)[C@@]1(Cc2ccccc2CN=[N+]=[N-])N=C(c2ccc(OCCCO)cc2)O[C@H]1c1ccccc1", "activity change (Venus) (%)": "-87.55"}
{"compound": "C[C@@H]1CN([C@@H](C)CO)C(=O)c2cc(/C=C/c3ccccc3)cnc2O[C@H]1CN(C)C(=O)c1ccc2c(c1)OCO2", "activity change (Venus) (%)": "-44.92"}
{"compound": "CCN(C[C@@H]1N[C@@H](CO)[C@H]1c1ccc(-c2ccc(F)cc2)cc1)C(=O)CN(C)C", "activity change (Venus) (%)": "-30.54"}
{"compound": "CCNC(=O)c1cc2c(c(-c3cccc(-c4ccccc4F)c3)n1)[C@@H](CCO)N(C(=O)CC1CC1)C2", "activity change (Venus) (%)": "-33.5"}
{"compound": "COc1ccccc1S(=O)(=O)N1CC[C@H]2[C@H](CO)Nc3ccc(-c4ccccc4)cc3[C@H]21", "activity change (Venus) (%)": "-42.89"}
{"compound": "Cc1ccc(S(=O)(=O)Nc2ccc3c(c2)CC(=O)N([C@H](C)CO)C[C@@H](C)[C@H](CN(C)Cc2ccc(Oc4ccccc4)cc2)O3)cc1", "activity change (Venus) (%)": "-61.69"}

The last 2 entries again:

compound	activity change (Venus) (%)
COc1ccccc1S(=O)(=O)N1CC[C@H]2[C@H](CO)Nc3ccc(-c4ccccc4)cc3[C@H]21	-42.89
Cc1ccc(S(=O)(=O)Nc2ccc3c(c2)CC(=O)N([C@H](C)CO)C[C@@H](C)[C@H](CN(C)Cc2ccc(Oc4ccccc4)cc2)O3)cc1	-61.69